The supplement of paper PMC5949888
Most values lie at the floor of the assay. Slopes are relative: functional sequences can read slightly below zero.

Test system: Saccharomyces cerevisiae PS128 hsf1 delta, HSF1(1-493) fusion
Test: growth estimate (transactivation domain function in HSF1 fusion, heat-shock survival) (a.u. (slope of normalised read count over time)); higher = stronger growth at 37°C, i.e. more transactivation activity
Conditions: library: random library

Substance	growth estimate
RVSTLVGRKS	< -0.25
RVTEELGHKRYADISPPRGT	< -0.25
RVTHGSRQTGSFVSMSYLVG	< -0.25
RVTQWISHCEGVP	< -0.25
RVVDVVI	-0.243
RVVLDYRHCSYLVNIPEGNS	< -0.25
RVVPRA	0.0482
RVVTSETYGWCRPVAIGFPG	< -0.25
RVVVVSGTLRLRYPRRNVLV	< -0.25
RVWAGLRGARCHEVIKEPLG	< -0.25
RVWG	-0.246
RVWNLSMP	< -0.25
RWASLHGPRRGRTVADQRVS	< -0.25
RWCLSPHRHRRLHKMEGEPP	< -0.25
RWDAFVSYGRYGEAFP	< -0.25
RWDLLMIPEKREKRVVLSSV	< -0.25
RWDPHGLSEPGRSRD	< -0.25
RWERPVRFSFPGQDTVINC	< -0.25
RWEVSFGMILIHVGSDESKV	< -0.25
RWFSEKWVRELGPWLAHALL	< -0.25
RWGCFC	< -0.25
RWGPTAWNRESYCVRSCGVF	< -0.25
RWIIAHDDHYPQYAAPVSRS	< -0.25
RWILAHC	< -0.25
RWK	-0.167
RWKFRALS	< -0.25

Quoted at random: 4 records from the list.
Substance	growth estimate
RWIIAHDDHYPQYAAPVSRS	< -0.25
RWDPHGLSEPGRSRD	< -0.25
RVWG	-0.246
RVTHGSRQTGSFVSMSYLVG	< -0.25

Continued.

Substance	growth estimate
RWLARRTARRVIVRRFRLAW	< -0.25
RWLEVLS	< -0.25
RWLGLCSEFYRPPNSIDGRP	< -0.25
RWRISVRL	< -0.25
RWSTLNFRS	< -0.25
RWSVSRYGFGFLTY	< -0.25
RWYFGF	< -0.25
RYASAGSRSNSYSNRRRLDL	< -0.25
RYDADFWGTRNMHHLGLF	< -0.25
RYENGCRLHVTRACHLQPSS	< -0.25
RYERDPMSRAYRFFVGSHLA	< -0.25
RYGKGAVPILFCEVYLTATR	< -0.25
RYGLAFGPVCVSTTPKGLSG	< -0.25
RYGTARKSSQNR	< -0.25
RYGTVSVAGSDVGKTKARNS	< -0.25
RYHWRGGQGI	0.226
RYICPGTIS	< -0.25
RYIYVEGCEIRLSQAMGQTS	< -0.25
RYKARGIHERAENVIPMGLR	< -0.25
RYKL	< -0.25
RYLSPECDLSRDEACGMGAC	< -0.25
RYLYGVGPNPRFFSMLPVDG	< -0.25
RYNGKGQKCTARHCSDQSRS	< -0.25
RYNLTSVVRWSLRL	-0.245
RYNVHSNASELGSAAWTEGR	< -0.25
RYQGSWRFTRVLAVK	< -0.25

Substance	growth estimate
RYQGVIRAMIVSRCTGWHGI	< -0.25
RYQQKSLAVPWYQWPRCL	< -0.25
RYRDHVHF	< -0.25
RYRGCKGVNGALMGPWMSSS	-0.237
RYRVGLPIRYSADAIGRPDV	< -0.25
RYSDFARPKG	< -0.25
RYSGAAIWSVTRRHLIEATL	< -0.25
RYSGPFPAIPHAARILL	< -0.25
RYSKELSTGIVGLMARGRLI	< -0.25
RYSVANKRELLAIPDPCDYR	< -0.25
RYVLLREQT	< -0.25
RYW	< -0.25
RYYPWV	< -0.25
SAADFINSCRTRLLSELQAG	< -0.25
SAAP	< -0.25
SACIYCWLDGRETPGLQPAK	0.564
SADCSLYQGLGAIRKLIRTG	< -0.25
SAFRLIFPFRRKRMYRGVIT	-0.246
SAFRPRFDRPCPRGGP	< -0.25
SAFVSLMTCIS	< -0.25
SAFWDVRLGTFWCRKD	< -0.25
SAGDQCVGGGPWLRPLSRRA	< -0.25
SAGGSSMTVCNLGTPARLCL	< -0.25
SAGKSFGGNTDLPLVIA	< -0.25
SAGPAGASSLGPLAVQGRRA	< -0.25
SAGQGRLLVCIPRAVKDGDG	< -0.25
